PubChem BioAssay AID1224829 – NIAID | 2016
The whole screen tested about 3,800 reagents; below is a part drawn at random. 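Calls cover raised and lowered translocation; gene median uses one vendor's three siRNAs; qiagen siRNAs acted more weakly than ambion siRNAs.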 Entries without a mark were called inactive. The numbers tell different reagents against one gene apart. Not all columns of the deposit are shown.

Aim: 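Secondary check of hits that alter LPS-induced p65 translocation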 (follow-up of hits)
System: mouse RAW264.7 G9 macrophage reporter cells
Knock-down reagent: single siRNA against mouse genes, 100 nM
Time to read-out: 2 days of siRNA knock-down, then 40 min of LPS before fixing
Challenge: LPS (Salmonella minnesota R595) at 10 ng/ml
Read-out: 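High-content images after 40 min LPS exposure; GFP-p65 nucleus to surrounding ring signal ratio, normalised to plate median and non-targeting control wells, expressed as z-score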
Scale: p65 translocation z-score: higher = more nuclear NF-kappaB p65 after LPS
Call rule: 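Active means the replicate-mean z-score lies beyond plus or minus 2, in either direction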
Meaning of the calls: active = changed p65 translocation (either direction); inactive = no clear change

Target gene	siRNA no.	siRNA vendor or control pool	p65 translocation z-score, replicate mean
Krr1	1	ambion single siRNA	-7.09 (active)
Krr1	2	ambion single siRNA	-5.45 (active)
Krr1	3	ambion single siRNA	-1.72
Krr1	4	qiagen single siRNA	-0.352
Krr1	5	qiagen single siRNA	-1.31
Krr1	6	qiagen single siRNA	4.88 (active)
Psmd4	1	ambion single siRNA	-4.1 (active)
Psmd4	2	ambion single siRNA	-1.82
Psmd4	3	ambion single siRNA	-0.12
Psmd4	4	qiagen single siRNA	1.29
Psmd4	5	qiagen single siRNA	2.69 (active)
Psmd4	6	qiagen single siRNA	1.74
Hc	1	ambion single siRNA	-1.18
Hc	2	ambion single siRNA	0.00757
Hc	3	ambion single siRNA	-1.29
Hc	4	qiagen single siRNA	0.309
Hc	5	qiagen single siRNA	-1.33
Hc	6	qiagen single siRNA	-3.28 (active)
Krt6b	1	qiagen single siRNA	-2.1 (active)
Krt6b	2	qiagen single siRNA	-4.7 (active)
Krt6b	3	qiagen single siRNA	0.0712
Cmss1	1	ambion single siRNA	-2.73 (active)
Cmss1	2	ambion single siRNA	1.32
Cmss1	3	ambion single siRNA	-2.12 (active)
Cmss1	4	qiagen single siRNA	0.187
Cmss1	5	qiagen single siRNA	1.34
Cmss1	6	qiagen single siRNA	2.97 (active)

No new results follow: an excerpt of the list.
Target gene	siRNA no.	siRNA vendor or control pool	p65 translocation z-score, replicate mean
Hc	5	qiagen single siRNA	-1.33
Hc	6	qiagen single siRNA	-3.28 (active)
Krt6b	1	qiagen single siRNA	-2.1 (active)

The results go on:
Target gene	siRNA no.	siRNA vendor or control pool	p65 translocation z-score, replicate mean
Cd52	1	ambion single siRNA	-0.976
Cd52	2	ambion single siRNA	0.17
Cd52	3	ambion single siRNA	0.556
Cd52	4	qiagen single siRNA	0.0694
Cd52	5	qiagen single siRNA	-2.48 (active)
Cd52	6	qiagen single siRNA	1.26
Ctf1	1	ambion single siRNA	-2.62 (active)
Ctf1	2	ambion single siRNA	-1.15
Ctf1	3	ambion single siRNA	-3.9 (active)
Ctf1	4	qiagen single siRNA	3.72 (active)
Ctf1	5	qiagen single siRNA	-4.43 (active)
Ctf1	6	qiagen single siRNA	-2.96 (active)
Sqor	1	ambion single siRNA	-0.976
Sqor	2	ambion single siRNA	-1.52
Sqor	3	ambion single siRNA	-2.04 (active)
Sqor	4	qiagen single siRNA	0.283
Sqor	5	qiagen single siRNA	-0.933
Sqor	6	qiagen single siRNA	-6.15 (active)
Prrt3	1	ambion single siRNA	-2.98 (active)
Prrt3	2	ambion single siRNA	-1.98
Prrt3	3	ambion single siRNA	-2.43 (active)
Prrt3	4	qiagen single siRNA	2.56 (active)
Prrt3	5	qiagen single siRNA	3.14 (active)
Prrt3	6	qiagen single siRNA	-2.68 (active)
